Data reported in publication doi:10.1101/2025.05.30.657000.
Like-named read-outs stand apart in the source and are kept apart here. Results are given in words; binding and its absence hold for the method and conditions named. Binding seen in cells or lysates may run through a third protein. These calls come from enrichment with a bait or labelling near it, and not all partners need be listed.

Chains of the proteins cited; added tags and fusions are not shown. Lines headed by an entry give the natural chain unless they say otherwise; changes in a name come on top.
UniProt Q07817: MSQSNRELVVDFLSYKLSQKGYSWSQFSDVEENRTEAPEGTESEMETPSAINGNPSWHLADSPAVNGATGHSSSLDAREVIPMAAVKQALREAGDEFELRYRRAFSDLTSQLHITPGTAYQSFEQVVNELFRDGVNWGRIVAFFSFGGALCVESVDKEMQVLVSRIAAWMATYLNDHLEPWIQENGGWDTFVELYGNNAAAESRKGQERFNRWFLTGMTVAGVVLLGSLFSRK
UniProt Q07812: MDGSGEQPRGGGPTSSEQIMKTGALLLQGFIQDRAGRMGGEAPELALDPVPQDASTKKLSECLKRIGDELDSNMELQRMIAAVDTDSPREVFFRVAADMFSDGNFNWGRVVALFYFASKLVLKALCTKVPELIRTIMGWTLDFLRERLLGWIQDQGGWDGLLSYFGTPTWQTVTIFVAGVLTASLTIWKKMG
UniProt P10415: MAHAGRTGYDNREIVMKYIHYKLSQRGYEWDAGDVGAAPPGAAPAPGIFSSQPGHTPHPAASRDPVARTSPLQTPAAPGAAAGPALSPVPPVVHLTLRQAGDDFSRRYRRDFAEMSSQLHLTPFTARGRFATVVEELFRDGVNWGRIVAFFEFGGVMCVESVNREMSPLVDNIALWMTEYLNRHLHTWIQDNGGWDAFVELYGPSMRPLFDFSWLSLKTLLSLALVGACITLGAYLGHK

B1: MAVS, Q7Z434 1-540 (protein)
chain: MPFAEDKTYKYICRNFSNFCNVDVVEILPYLPCLTARDQDRLRATCTLSGNRDTLWHLFNTLQRRPGWVEYFIAALRGCELVDLADEVASVYQSYQPRTSDRPPDPLEPPSLPAERPGPPTPAAAHSIPYNSCREKEPSYPMPVQETQAPESPGENSEQALQTLSPRAIPRNPDGGPLESSSDLAALSPLTSSGHQEQDTELGSTHTAGATSSLTPSRGPVSPSVSFQPLARSTPRASRLPGPTGSVVSTGTSFSSSSPGLASAGAAEGKQGAESDQAEPIICSSGAEAPANSLPSKVPTTLMPVNTVALKVPANPASVSTVPSKLPTSSKPPGAVPSNALTNPAPSKLPINSTRAGMVPSKVPTSMVLTKVSASTVPTDGSSRNEETPAAPTPAGATGGSSAWLDSSSENRGLGSELSKPGVLASQVDSPFSGCFEDLAISASTSLGMGPCHGPEENEYKSEGTFGIHVAENPSIQLLEGNPGPPADPDGGPRPQADRKFQEREVPCHRPSPGALWLQVAVTGVLVVTLLVVLYRRRLH
B2: MFF (protein, UniProt Q9GZY8 1-342)
chain: MSKGTSSDTSLGRVSRAAFPSPTAAEMAEISRIQYEMEYTEGISQRMRVPEKLKVAPPNADLEQGFQEGVPNASVIMQVPERIVVAGNNEDVSFSRPADLDLIQSTPFKPLALKTPPRVLTLSERPLDFLDLERPPTTPQNEEIRAVGRLKRERSMSENAVRQNGQLVRNDSLWHRSDSAPRNKISRFQAPISAPEYTVTPSPQQARVCPPHMLPEDGANLSSARGILSLIQSSTRRAYQQILDVLDENRRPVLRGGSAAATSNPHHDNVRYGISNIDTTIEGTSDDLTVVDAASLRRQIIKLNRRLQLLEEENKERAKREMVMYSITVAFWLLNSWLWFRR
B3: OCIAD1 (protein, UniProt Q9NX40 1-245)
chain: MNGRADFREPNAEVPRPIPHIGPDYIPTEEERRVFAECNDESFWFRSVPLAATSMLITQGLISKGILSSHPKYGSIPKLILACIMGYFAGKLSYVKTCQEKFKKLENSPLGEALRSGQARRSSPPGHYYQKSKYDSSVSGQSSFVTSPAADNIEMLPHYEPIPFSSSMNESAPTGITDHIVQGPDPNLEESPKRKNITYEELRNKNRESYEVSLTQKTDPSVRPMHERVPKKEVKVNKYGDTWDE
B4: YKT6 (protein, UniProt O15498 1-198)
chain: MKLYSLSVLYKGEAKVVLLKAAYDVSSFSFFQRSSVQEFMTFTSQLIVERSSKGTRASVKEQDYLCHVYVRNDSLAGVVIADNEYPSRVAFTLLEKVLDEFSKQVDRIDWPVGSPATIHYPALDGHLSRYQNPREADPMTKVQAELDETKIILHNTMESLLERGEKLDDLVSKSEVLGTQSKAFYKTARKQNSCCAIM
B5: CLCC1 (protein, UniProt Q96S66 19-551)
chain: HDDDWIDPTDMLNYDAASGTMRKSQAKYGISGEKDVSPDLSCADEISECYHKLDSLTYKIDECEKKKREDYESQSNPVFRRYLNKILIEAGKLGLPDENKGDMHYDAEIILKRETLLEIQKFLNGEDWKPGALDDALSDILINFKFHDFETWKWRFEDSFGVDPYNVLMVLLCLLCIVVLVATELWTYVRWYTQLRRVLIISFLFSLGWNWMYLYKLAFAQHQAEVAKMEPLNNVCAKKMDWTGSIWEWFRSSWTYKDDPCQKYYELLLVNPIWLVPPTKALAVTFTTFVTEPLKHIGKGTGEFIKALMKEIPALLHLPVLIIMALAILSFCYGAGKSVHVLRHIGGPESEPPQALRPRDRRRQEEIDYRPDGGAGDADFHYRGQMGPTEQGPYAKTYEGRREILRERDVDLRFQTGNKSPEVLRAFDVPDAEAREHPTVVPSHKSPVLDTKPKETGGILGEGTPKESSTESSQSAKPVSGQDTSGNTEGSPAAEKAQLKSEAAGSPDQGSTYSPARGVAGPRGQDPVSSPCG
B6: BANF1 (protein, UniProt O75531 1-89)
chain: MTTSQKHRDFVAEPMGEKPVGSLAGIGEVLGKKLEERGFDKAYVVLGQFLVLKKDEDLFREWLKDTCGANAKQSRDCFGCLREWCDAFL
B7: PTPN1 (protein, UniProt P18031 1-435)
chain: MEMEKEFEQIDKSGSWAAIYQDIRHEASDFPCRVAKLPKNKNRNRYRDVSPFDHSRIKLHQEDNDYINASLIKMEEAQRSYILTQGPLPNTCGHFWEMVWEQKSRGVVMLNRVMEKGSLKCAQYWPQKEEKEMIFEDTNLKLTLISEDIKSYYTVRQLELENLTTQETREILHFHYTTWPDFGVPESPASFLNFLFKVRESGSLSPEHGPVVVHCSAGIGRSGTFCLADTCLLLMDKRKDPSSVDIKKVLLEMRKFRMGLIQTADQLRFSYLAVIEGAKFIMGDSSVQDQWKELSHEDLEPPPEHIPPPPRPPKRILEPHNGKCREFFPNHQWVKEETQEDKDCPIKEEKGSPLNAAPYGIESMSQDTEVRSRVVGGSLRGAQAASPAKGEPSLPEKDEDHALSYWKPFLVNMCVATVLTAGAYLCYRFLFNSNT
B8: Hexokinase 1 (protein, UniProt P19367 1-917)
chain: MIAAQLLAYYFTELKDDQVKKIDKYLYAMRLSDETLIDIMTRFRKEMKNGLSRDFNPTATVKMLPTFVRSIPDGSEKGDFIALDLGGSSFRILRVQVNHEKNQNVHMESEVYDTPENIVHGSGSQLFDHVAECLGDFMEKRKIKDKKLPVGFTFSFPCQQSKIDEAILITWTKRFKASGVEGADVVKLLNKAIKKRGDYDANIVAVVNDTVGTMMTCGYDDQHCEVGLIIGTGTNACYMEELRHIDLVEGDEGRMCINTEWGAFGDDGSLEDIRTEFDREIDRGSLNPGKQLFEKMVSGMYLGELVRLILVKMAKEGLLFEGRITPELLTRGKFNTSDVSAIEKNKEGLHNAKEILTRLGVEPSDDDCVSVQHVCTIVSFRSANLVAATLGAILNRLRDNKGTPRLRTTVGVDGSLYKTHPQYSRRFHKTLRRLVPDSDVRFLLSESGSGKGAAMVTAVAYRLAEQHRQIEETLAHFHLTKDMLLEVKKRMRAEMELGLRKQTHNNAVVKMLPSFVRRTPDGTENGDFLALDLGGTNFRVLLVKIRSGKKRTVEMHNKIYAIPIEIMQGTGEELFDHIVSCISDFLDYMGIKGPRMPLGFTFSFPCQQTSLDAGILITWTKGFKATDCVGHDVVTLLRDAIKRREEFDLDVVAVVNDTVGTMMTCAYEEPTCEVGLIVGTGSNACYMEEMKNVEMVEGDQGQMCINMEWGAFGDNGCLDDIRTHYDRLVDEYSLNAGKQRYEKMISGMYLGEIVRNILIDFTKKGFLFRGQISETLKTRGIFETKFLSQIESDRLALLQVRAILQQLGLNSTCDDSILVKTVCGVVSRRAAQLCGAGMAAVVDKIRENRGLDRLNVTVGVDGTLYKLHPHFSRIMHQTVKELSPKCNVSFLLSEDGSGKGAALITAVGVRLRTEASS

What was measured:
Test in all cases: proximity labelling
BirA*-Bcl-XL, Q07817 [1] = conditions: remark: other sources report otherwise
BirA*-Bcl-XL, Q07817 [2] = conditions: remark: other sources report otherwise; remark: listed apart in the source
BirA*-Bcl-XL [3] = target: BirA*-Bcl-XL (UniProt Q07817)
BirA*-Bcl-XL [4] = target: BirA*-Bcl-XL (UniProt Q07817); remark: listed apart in the source
BirA*-BaxS184V = BirA*-BaxS184V (UniProt Q07812)
BirA*-Bcl-2 [5] = target: BirA*-Bcl-2 (UniProt P10415)
BirA*-Bcl-XL [6] = target: BirA*-Bcl-XL (UniProt Q07817); remark: listed apart in the source
BirA*-Bcl-2 [7] = target: BirA*-Bcl-2 (UniProt P10415); remark: listed apart in the source

Row | Binder | binding (BirA*-Bcl-XL [3]) | binding (BirA*-BaxS184V) | binding (BirA*-Bcl-2 [5]) | other results
1 | B1 |  |  |  | binding (BirA*-Bcl-XL, Q07817 [1]): binds; binding (BirA*-Bcl-XL, Q07817 [2]): binds
2 | B2 | binds |  |  | binding (BirA*-Bcl-XL [4]): binds
3 | B3 | binds | binds |  | 
4 | B4 | binds | binds | binds | binding (BirA*-Bcl-XL [6]): binds
5 | B5 |  |  | binds | binding (BirA*-Bcl-2 [7]): binds
6 | B6 |  |  | binds | binding (BirA*-Bcl-2 [7]): binds
7 | B7 |  | binds | binds | 
8 | B8 |  |  |  | binding (BirA*-Bcl-XL [4]): binds
